The structures appear in SMILES notation. ≈ marks a conversion by molar mass, not a printed value. Where two headings read alike, the source gives them in different places.

One data set is described as follows: physchem. Particulars: pH 7, water.
The conditions of data set [1]: rats, product monograph, cited from earlier work.

Consider `Nc1nc2ccc(OC(F)(F)F)cc2s1` [Riluzole, 6-trifluoromethoxy-2-benzothiazolamine], for which the concentration in solution in the data set “physchem” (solubility) was 300 µg/mL (≈ 1280 µM). In addition, the values for the LD50 in data set [1] (intravenous) and in data set [1] (oral) were 21 mg/kg and 45 mg/kg, respectively.

The values above are taken from US20200289476A1 (University of Houston System, priority 2017, published 2020).
